Results: ChEMBL document CHEMBL3739368, “Versixanthones A-F, Cytotoxic Xanthone-Chromanone Dimers from the Marine-Derived Fungus Aspergillus versicolor HDN1009” (J Nat Prod, 2015)
Counter-ions that a name gives are not always drawn.

Experiment: Cytotoxicity against human HO8910 cells after 72 hrs by MTT assay
Format: functional, cell-based
Settings: HO-8910, 72 h

## COc1cccc2c1C(=O)c1c(O)c3c(c(O)c1C2=O)C[C@@](O)(C(=O)CO)C[C@@H]3O[C@H]1C[C@H](N)[C@H](O)[C@H](C)O1 [DOXORUBICIN HYDROCHLORIDE]
  IC50: 0.5 µM
